Among the data in article doi:10.1101/2020.04.03.024018 are binding values, retold here.

The chains behind the UniProt entries cited, without tags or fusion partners. Where a name states a change or a piece, a line headed by the entry shows the natural chain unless it says otherwise. Residues count along the entry.
UniProt P21730, whole entry, looked up, stated change not applied: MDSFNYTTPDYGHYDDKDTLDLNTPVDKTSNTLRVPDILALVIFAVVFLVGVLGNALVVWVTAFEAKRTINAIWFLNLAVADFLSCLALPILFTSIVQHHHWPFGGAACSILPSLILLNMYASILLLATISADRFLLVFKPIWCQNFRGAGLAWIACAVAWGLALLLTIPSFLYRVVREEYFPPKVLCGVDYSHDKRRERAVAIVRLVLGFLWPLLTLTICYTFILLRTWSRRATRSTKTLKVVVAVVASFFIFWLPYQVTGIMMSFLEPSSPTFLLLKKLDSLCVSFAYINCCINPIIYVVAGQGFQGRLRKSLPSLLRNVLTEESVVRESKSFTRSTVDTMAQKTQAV
UniProt P01031, 678-751: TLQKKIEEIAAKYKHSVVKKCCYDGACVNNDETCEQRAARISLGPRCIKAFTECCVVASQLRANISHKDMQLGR

In experiment [1] the target is C5aRΔTyr mutant (Y11F and Y14F) (human) (UniProt P21730). Nature of the experiment: single-molecule force spectroscopy.
Experiment [2] deals with C5aR D282A mutant (human) (UniProt P21730). Nature of the experiment: single-molecule force spectroscopy.

These are yes or no findings as the source states them, for the method shown. Some results given as binding are weak or reduced against the parent protein; the word gives no strength.

Regarding “complement C5a anaphylatoxin (from UniProt P01031 678-751) (ligand)”, the binding entry in experiment [1] and in experiment [2] was “binds weakly” each time.
